PubChem BioAssay AID1671195 – Yale University, 2021
The deposit covers about 22,000 reagents; this is a part drawn at random. In the full data, about 1,510 (6.9%) are marked active. 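Active includes knockdowns raising or lowering LDL uptake; positive z-scores mean more uptake, negative mean less.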 Entries without a mark were called inactive.

Aim: 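Regulators of LDL receptor activity judged by labelled LDL uptake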 (primary screen)
Cell system: human Huh7 hepatoma cells
Knock-down reagent: siRNA pool against human genes, 18 nM
Time to read-out: about 2 to 2.5 days of knockdown, then 8 h LDL uptake
Challenge: DiI-labelled LDL at 30 µg/ml for 8 h, in lipoprotein-deficient serum medium
Measurement: 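Per-cell DiI-LDL intensity by automated imaging; well means scaled to the plate median and given as a robust z-score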
Direction: robust z-score: higher = more LDL uptake after knockdown
Rule for the call: 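a gene counts as active if at least two replicate z-scores exceed ±2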

Against SLC34A2 the deposit lists robust z-score, replicate 1 = 0.732; robust z-score, replicate 2 = 0.344; robust z-score, replicate 3 = 1.05.
Silencing of ATP6V0A4 resulted in: robust z-score, replicate 1 = -0.32; robust z-score, replicate 2 = -0.689; robust z-score, replicate 3 = -0.0606.
SPINK14 scored robust z-score, replicate 1 = 0.969; robust z-score, replicate 2 = 0.722; robust z-score, replicate 3 = 0.304.
OR2AT4 gave robust z-score, replicate 1 = 0.502; robust z-score, replicate 2 = -0.0689; robust z-score, replicate 3 = -0.0328.
ST20 scored robust z-score, replicate 1 = -1.32; robust z-score, replicate 2 = -0.952; robust z-score, replicate 3 = -0.933.
Silencing of LOC400813 (retired record) resulted in: robust z-score, replicate 1 = 1.45; robust z-score, replicate 2 = 0.645; robust z-score, replicate 3 = 0.927.

Targets listed so far whose target name begins with S or s:
SLC34A2 → robust z-score, replicate 1 = 0.732; robust z-score, replicate 2 = 0.344; robust z-score, replicate 3 = 1.05
SPINK14 → robust z-score, replicate 1 = 0.969; robust z-score, replicate 2 = 0.722; robust z-score, replicate 3 = 0.304
ST20 → robust z-score, replicate 1 = -1.32; robust z-score, replicate 2 = -0.952; robust z-score, replicate 3 = -0.933

The results go on:
Against TPP2, the entry reads robust z-score, replicate 1 = 1.83; robust z-score, replicate 2 = 3.2; robust z-score, replicate 3 = 1.54.
With knock-down of HMX3, the record shows robust z-score, replicate 1 = -0.551; robust z-score, replicate 2 = -0.129; robust z-score, replicate 3 = 0.0895.
SNHG11 showed robust z-score, replicate 1 = 0.617; robust z-score, replicate 2 = 1.35; robust z-score, replicate 3 = 0.998.
After knock-down of TAS2R10, the screen gave robust z-score, replicate 1 = 0.394; robust z-score, replicate 2 = -0.95; robust z-score, replicate 3 = 0.125.
For SAMD8, the values are robust z-score, replicate 1 = 1.46; robust z-score, replicate 2 = 0.617; robust z-score, replicate 3 = 1.91.
With knock-down of ACSM5, the screen gave robust z-score, replicate 1 = 1.55; robust z-score, replicate 2 = 1.67; robust z-score, replicate 3 = 1.1.
